The list shows a part of the results. The data scatter; read single values as rough.
compound: ClCC(=O)N[C@H]1CCCc2ccccc12; experiment: log2 mean competition ratio of IA-DTB cysteine labelling (DMSO/compound) (log2 ratio); higher = stronger cysteine engagement by compound; conditions: 50 µM; treatment time: 4 h; cell line lysate: HEK293T
Procedure: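 IA-DTB competitive cysteine chemoproteomics in HEK293T RIPA lysate. Lysates were treated with compound 29 or 30 at 50 or 200 µM for 4 h, then IA-DTB (500 µM, 1 h), trypsin-digested, NeutrAvidin-enriched and analysed by diaPASEF. Competition ratio = intensity DMSO / intensity compound (n=4 treated, n=64 DMSO); binding: mean log2 CR ≥ 1 and p ≤ 0.05 plus QC filters. Target is the cysteine site.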

The chains behind the UniProt entries cited, without tags or fusion partners. Where a name states a change or a piece, a line headed by the entry shows the natural chain unless it says otherwise.
UniProt Q13129: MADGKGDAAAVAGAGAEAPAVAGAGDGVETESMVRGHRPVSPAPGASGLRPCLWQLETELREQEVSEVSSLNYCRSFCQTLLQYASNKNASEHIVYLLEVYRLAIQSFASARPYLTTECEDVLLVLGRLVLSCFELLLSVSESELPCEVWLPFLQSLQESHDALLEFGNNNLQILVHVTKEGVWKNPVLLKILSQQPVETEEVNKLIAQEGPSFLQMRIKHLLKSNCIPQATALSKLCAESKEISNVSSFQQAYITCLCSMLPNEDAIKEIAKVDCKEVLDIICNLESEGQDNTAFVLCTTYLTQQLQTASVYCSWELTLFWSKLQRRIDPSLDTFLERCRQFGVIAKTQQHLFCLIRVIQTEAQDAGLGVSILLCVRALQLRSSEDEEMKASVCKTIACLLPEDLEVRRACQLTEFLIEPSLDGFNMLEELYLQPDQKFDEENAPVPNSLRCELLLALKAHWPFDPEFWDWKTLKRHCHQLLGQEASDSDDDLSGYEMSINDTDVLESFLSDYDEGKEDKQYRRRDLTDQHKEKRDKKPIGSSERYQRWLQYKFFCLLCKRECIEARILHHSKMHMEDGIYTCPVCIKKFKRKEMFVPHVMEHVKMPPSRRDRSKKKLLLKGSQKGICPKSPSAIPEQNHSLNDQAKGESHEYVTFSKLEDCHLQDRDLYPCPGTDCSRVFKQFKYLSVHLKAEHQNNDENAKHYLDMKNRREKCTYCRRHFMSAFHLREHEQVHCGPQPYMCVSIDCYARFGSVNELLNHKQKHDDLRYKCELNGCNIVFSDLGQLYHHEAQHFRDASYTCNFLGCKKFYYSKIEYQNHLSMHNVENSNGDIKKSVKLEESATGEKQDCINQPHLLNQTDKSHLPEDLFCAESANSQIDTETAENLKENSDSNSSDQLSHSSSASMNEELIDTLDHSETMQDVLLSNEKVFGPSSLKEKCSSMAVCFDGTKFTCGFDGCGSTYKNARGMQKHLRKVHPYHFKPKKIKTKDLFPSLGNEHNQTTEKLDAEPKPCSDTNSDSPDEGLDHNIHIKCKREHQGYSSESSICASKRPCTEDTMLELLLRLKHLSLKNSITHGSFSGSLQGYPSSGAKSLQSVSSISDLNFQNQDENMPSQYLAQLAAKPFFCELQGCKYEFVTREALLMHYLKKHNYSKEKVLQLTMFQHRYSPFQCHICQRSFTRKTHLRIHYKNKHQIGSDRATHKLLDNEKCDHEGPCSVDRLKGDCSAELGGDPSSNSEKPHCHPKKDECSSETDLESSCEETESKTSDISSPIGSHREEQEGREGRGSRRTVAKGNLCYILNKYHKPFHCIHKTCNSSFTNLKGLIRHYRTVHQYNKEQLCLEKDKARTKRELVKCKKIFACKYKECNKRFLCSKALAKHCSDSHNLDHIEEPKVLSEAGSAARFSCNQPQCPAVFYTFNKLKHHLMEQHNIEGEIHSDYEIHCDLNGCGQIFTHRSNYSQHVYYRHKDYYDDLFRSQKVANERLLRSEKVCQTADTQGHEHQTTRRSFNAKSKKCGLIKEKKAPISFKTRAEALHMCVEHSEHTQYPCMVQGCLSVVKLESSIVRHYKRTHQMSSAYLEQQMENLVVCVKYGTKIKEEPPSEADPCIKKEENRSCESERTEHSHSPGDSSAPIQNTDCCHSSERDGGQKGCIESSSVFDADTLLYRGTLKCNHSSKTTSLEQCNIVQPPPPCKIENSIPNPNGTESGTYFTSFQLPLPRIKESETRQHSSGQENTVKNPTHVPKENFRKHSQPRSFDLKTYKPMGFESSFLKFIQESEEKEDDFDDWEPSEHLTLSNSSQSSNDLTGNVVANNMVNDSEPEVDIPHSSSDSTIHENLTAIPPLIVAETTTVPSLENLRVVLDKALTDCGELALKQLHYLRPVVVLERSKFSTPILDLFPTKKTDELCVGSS
UniProt Q8IZV5: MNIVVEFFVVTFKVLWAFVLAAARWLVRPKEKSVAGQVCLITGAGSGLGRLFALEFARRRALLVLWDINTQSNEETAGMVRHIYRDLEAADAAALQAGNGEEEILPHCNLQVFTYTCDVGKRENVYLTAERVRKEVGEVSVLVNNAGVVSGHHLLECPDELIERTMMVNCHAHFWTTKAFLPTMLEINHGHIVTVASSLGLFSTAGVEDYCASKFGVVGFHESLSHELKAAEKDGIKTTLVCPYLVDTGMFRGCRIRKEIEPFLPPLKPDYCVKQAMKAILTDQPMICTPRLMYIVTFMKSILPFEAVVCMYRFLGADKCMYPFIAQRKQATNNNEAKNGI
UniProt Q9P0K7: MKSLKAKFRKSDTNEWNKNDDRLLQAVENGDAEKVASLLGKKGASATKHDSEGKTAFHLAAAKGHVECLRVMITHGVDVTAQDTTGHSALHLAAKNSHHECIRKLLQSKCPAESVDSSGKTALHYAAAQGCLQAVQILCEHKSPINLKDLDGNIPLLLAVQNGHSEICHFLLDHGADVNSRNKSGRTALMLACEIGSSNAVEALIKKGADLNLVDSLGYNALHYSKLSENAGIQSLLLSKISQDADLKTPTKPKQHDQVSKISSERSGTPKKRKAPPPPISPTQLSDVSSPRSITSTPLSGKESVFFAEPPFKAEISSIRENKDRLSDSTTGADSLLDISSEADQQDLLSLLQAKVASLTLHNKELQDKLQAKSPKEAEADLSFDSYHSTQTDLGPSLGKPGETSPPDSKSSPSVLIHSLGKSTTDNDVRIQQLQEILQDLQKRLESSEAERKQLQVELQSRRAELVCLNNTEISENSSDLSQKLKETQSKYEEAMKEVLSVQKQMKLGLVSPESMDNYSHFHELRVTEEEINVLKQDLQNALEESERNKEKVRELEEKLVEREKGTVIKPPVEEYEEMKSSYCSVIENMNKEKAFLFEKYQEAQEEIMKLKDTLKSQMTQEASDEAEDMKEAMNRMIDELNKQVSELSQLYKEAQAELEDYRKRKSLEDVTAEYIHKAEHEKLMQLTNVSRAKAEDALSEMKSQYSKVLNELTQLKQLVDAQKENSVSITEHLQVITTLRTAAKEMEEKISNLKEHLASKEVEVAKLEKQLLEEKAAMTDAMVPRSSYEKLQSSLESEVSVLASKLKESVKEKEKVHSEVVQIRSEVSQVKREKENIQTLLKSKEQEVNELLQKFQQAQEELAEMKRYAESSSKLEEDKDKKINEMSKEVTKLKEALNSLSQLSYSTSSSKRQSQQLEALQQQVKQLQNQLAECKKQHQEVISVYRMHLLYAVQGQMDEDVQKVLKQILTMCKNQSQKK
UniProt P46060: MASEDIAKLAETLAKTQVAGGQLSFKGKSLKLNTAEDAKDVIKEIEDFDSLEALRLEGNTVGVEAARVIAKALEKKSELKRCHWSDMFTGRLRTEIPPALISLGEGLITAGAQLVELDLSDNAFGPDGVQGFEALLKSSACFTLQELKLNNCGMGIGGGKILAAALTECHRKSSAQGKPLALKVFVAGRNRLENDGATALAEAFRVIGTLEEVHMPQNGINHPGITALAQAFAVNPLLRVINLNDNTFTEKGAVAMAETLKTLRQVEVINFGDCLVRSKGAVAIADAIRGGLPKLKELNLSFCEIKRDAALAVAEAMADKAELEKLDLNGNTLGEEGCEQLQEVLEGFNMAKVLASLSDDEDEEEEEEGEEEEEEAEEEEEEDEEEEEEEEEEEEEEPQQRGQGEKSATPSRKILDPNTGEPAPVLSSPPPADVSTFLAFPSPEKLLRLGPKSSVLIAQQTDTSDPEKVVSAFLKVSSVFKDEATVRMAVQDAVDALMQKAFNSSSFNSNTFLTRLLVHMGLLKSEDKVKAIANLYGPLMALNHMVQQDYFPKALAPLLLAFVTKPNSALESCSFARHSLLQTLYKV
UniProt Q9NW13: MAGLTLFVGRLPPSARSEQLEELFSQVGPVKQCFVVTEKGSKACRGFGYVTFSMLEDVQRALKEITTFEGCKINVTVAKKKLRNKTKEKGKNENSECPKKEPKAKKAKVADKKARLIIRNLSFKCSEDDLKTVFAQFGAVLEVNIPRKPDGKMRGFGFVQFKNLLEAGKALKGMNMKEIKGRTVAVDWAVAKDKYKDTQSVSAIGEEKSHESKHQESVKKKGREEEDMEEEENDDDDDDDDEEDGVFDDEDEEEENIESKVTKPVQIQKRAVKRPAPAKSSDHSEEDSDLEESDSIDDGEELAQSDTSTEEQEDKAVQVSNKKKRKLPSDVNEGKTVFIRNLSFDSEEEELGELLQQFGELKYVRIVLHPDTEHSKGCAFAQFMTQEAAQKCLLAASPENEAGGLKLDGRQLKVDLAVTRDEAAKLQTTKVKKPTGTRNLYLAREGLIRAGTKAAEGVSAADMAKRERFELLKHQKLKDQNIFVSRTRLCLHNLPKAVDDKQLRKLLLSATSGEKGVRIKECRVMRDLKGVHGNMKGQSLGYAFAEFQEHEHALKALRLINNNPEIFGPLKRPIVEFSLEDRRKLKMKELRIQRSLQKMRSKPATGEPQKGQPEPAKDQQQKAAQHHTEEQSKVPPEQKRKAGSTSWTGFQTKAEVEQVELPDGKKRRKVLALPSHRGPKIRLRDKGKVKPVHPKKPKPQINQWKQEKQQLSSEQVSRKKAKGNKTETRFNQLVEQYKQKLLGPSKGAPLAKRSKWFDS
UniProt Q15283: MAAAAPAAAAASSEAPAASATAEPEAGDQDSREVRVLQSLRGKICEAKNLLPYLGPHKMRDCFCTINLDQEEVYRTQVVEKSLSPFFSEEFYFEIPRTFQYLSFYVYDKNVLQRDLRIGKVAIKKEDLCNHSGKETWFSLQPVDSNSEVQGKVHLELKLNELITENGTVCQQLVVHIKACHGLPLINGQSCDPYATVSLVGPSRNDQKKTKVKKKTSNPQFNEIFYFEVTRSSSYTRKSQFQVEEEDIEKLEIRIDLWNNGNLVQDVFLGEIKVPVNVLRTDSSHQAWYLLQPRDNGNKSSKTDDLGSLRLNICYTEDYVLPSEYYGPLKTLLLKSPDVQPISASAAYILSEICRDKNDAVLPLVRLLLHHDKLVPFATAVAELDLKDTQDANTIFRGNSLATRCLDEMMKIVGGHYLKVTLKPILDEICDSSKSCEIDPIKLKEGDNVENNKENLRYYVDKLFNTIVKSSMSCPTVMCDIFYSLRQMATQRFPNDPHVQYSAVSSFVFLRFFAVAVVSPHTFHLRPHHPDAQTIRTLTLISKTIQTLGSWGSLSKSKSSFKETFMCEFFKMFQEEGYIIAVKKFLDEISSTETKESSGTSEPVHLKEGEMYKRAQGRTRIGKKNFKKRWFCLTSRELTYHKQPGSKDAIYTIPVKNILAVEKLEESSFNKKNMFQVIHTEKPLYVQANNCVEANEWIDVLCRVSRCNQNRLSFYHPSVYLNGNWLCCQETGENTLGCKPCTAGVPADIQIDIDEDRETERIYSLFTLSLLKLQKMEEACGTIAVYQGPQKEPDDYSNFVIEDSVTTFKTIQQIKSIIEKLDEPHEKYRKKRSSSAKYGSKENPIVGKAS
UniProt Q5EBL4: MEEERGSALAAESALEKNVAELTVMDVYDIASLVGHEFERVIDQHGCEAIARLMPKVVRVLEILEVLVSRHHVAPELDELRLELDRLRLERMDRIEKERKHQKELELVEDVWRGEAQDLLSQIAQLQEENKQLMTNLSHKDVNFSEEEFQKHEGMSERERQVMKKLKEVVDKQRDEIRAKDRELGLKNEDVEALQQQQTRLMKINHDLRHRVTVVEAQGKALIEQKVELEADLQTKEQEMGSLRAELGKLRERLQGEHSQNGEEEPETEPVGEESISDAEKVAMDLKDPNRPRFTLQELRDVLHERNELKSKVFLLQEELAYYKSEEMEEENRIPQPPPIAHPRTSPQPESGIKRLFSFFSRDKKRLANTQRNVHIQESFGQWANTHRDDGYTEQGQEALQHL
UniProt Q9H6Z4: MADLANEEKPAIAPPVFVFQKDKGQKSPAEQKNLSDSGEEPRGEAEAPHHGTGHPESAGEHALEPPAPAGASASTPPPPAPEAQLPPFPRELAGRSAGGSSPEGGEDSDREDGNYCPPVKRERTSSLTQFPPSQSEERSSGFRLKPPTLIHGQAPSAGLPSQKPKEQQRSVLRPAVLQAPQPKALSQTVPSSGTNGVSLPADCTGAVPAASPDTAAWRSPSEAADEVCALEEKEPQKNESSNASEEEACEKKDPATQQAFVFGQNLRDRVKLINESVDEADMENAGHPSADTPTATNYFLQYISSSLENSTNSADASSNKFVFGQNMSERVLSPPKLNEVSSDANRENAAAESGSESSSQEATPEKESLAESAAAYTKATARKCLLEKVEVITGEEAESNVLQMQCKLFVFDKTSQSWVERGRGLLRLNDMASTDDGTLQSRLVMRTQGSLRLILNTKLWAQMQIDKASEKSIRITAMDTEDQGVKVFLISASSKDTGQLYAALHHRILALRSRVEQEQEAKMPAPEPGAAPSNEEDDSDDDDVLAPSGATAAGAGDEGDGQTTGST

| Target | log2 mean competition ratio |
| --- | --- |
| RLF C663 (UniProt Q13129) | -0.033 |
| RAVER2 C82 (UniProt Q9HCJ3) | -0.251 |
| RDH10 C272 (UniProt Q8IZV5) | -0.204 |
| RB1 C278 (UniProt P06400) | 0.723 |
| RIF1 C1155 (UniProt Q5UIP0) | -0.126 |
| RFC3 C303 (UniProt P40938) | -0.457 |
| RAI14 C584 (UniProt Q9P0K7) | -0.0329 |
| RANGAP1 C82 (UniProt P46060) | -0.0151 |
| RDH14 C306 (UniProt Q9HBH5) | -0.368 |
| RLF C1609 (UniProt Q13129) | -0.349 |
| RIOK1 C361 (UniProt Q9BRS2) | 0.0175 |
| RANBP2 C815 (UniProt P49792) | 0.102 |
| RBM28 C71 (UniProt Q9NW13) | 0.36 |
| RASA2 C405 (UniProt Q15283) | 0.847 |
| RIMS4 C164 | -0.431 |
| RILPL1 C47 (UniProt Q5EBL4) | -0.0603 |
| RANBP3 C228 (UniProt Q9H6Z4) | -0.316 |
| RBM28 C97 (UniProt Q9NW13) | -0.428 |
| RCC1 C93 (UniProt P18754) | 0.0678 |
| RANBP10 C501 (UniProt Q6VN20) | 0.772 |

same assay, conditions: 200 µM; treatment time: 4 h; cell line lysate: HEK293T

| Target | log2 mean competition ratio |
| --- | --- |
| RLF C663 (UniProt Q13129) | -0.0901 |
| RAVER2 C82 (UniProt Q9HCJ3) | -0.0348 |
| RDH10 C272 (UniProt Q8IZV5) | 0.368 |
| RB1 C278 (UniProt P06400) | 0.205 |
| RIF1 C1155 (UniProt Q5UIP0) | 0.108 |
| RFC3 C303 (UniProt P40938) | 0.0782 |
| RAI14 C584 (UniProt Q9P0K7) | -0.253 |
| RANGAP1 C82 (UniProt P46060) | 0.265 |
| RDH14 C306 (UniProt Q9HBH5) | -0.136 |
| RLF C1609 (UniProt Q13129) | 0.012 |
| RIOK1 C361 (UniProt Q9BRS2) | -0.195 |
| RANBP2 C815 (UniProt P49792) | -0.215 |
| RBM28 C71 (UniProt Q9NW13) | 0.0913 |
| RASA2 C405 (UniProt Q15283) | 0.319 |
| RIMS4 C164 | -0.0635 |
| RILPL1 C47 (UniProt Q5EBL4) | -0.0692 |
| RANBP3 C228 (UniProt Q9H6Z4) | -0.151 |
| RBM28 C97 (UniProt Q9NW13) | -0.0815 |
| RCC1 C93 (UniProt P18754) | -0.038 |
| RANBP10 C501 (UniProt Q6VN20) | 0.36 |

From the supplement of paper PMC11732987, “Enantioselective OTUD7B fragment discovery through chemoproteomics screening and high-throughput optimisation” (Communications Chemistry, 2025)
